Some of the results follow. Most values lie at the level of the controls, where differences are scatter.
What follows are targets tested with CN[C@@H]1C[C@H]2O[C@@](C)([C@@H]1OC)n1c3ccccc3c3c4c(c5c6ccccc6n2c5c31)C(=O)NC4 [staurosporine] (assay: log2 fold change of tryptic peptide abundance, ligand vs vehicle (limited proteolysis) (log2 ratio); higher = more trypsin-susceptible (destabilized)). Details: ligand concentration: 20 uM; sample: mouse liver crude lysate; replicate design: treated separately.

Sequences of proteins named here, by UniProt entry; tags and fusion partners are left off. A change or cut given only in a name is not applied to a line headed by its entry.
UniProt Q78RX3: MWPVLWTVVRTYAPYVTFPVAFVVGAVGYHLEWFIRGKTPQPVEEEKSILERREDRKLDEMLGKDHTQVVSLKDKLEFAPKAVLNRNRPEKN
UniProt Q80UZ0: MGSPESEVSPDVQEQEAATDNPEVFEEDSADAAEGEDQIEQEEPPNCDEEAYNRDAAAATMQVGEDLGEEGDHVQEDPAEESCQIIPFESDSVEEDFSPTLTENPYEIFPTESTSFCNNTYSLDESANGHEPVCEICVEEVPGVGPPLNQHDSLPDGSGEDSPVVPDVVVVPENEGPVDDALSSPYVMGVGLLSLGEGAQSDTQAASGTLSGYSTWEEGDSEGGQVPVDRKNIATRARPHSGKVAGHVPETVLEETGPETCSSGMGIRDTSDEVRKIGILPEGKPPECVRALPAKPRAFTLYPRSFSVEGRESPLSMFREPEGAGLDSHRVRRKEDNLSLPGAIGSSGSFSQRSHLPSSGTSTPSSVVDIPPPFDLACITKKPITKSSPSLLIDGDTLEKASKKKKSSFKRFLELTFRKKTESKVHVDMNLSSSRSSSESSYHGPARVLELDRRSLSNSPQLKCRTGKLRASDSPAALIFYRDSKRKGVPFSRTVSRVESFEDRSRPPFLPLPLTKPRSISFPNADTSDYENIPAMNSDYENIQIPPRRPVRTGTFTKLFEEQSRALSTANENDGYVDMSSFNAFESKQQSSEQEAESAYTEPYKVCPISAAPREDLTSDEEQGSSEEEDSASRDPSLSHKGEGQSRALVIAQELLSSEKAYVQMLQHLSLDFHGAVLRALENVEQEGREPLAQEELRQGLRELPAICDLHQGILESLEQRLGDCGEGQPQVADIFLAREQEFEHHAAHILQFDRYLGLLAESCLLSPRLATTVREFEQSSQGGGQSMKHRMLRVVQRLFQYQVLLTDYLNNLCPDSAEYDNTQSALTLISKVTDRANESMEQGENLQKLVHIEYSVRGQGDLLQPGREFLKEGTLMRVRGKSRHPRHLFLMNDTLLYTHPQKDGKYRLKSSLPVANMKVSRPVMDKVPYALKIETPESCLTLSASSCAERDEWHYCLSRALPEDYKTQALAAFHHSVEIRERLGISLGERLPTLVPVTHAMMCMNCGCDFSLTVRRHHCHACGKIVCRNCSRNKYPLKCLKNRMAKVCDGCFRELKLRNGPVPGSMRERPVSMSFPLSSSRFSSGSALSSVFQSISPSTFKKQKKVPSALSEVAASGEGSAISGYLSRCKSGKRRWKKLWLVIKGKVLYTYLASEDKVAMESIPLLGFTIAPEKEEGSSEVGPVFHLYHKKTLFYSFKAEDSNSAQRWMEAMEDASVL
UniProt Q76MZ3, whole entry: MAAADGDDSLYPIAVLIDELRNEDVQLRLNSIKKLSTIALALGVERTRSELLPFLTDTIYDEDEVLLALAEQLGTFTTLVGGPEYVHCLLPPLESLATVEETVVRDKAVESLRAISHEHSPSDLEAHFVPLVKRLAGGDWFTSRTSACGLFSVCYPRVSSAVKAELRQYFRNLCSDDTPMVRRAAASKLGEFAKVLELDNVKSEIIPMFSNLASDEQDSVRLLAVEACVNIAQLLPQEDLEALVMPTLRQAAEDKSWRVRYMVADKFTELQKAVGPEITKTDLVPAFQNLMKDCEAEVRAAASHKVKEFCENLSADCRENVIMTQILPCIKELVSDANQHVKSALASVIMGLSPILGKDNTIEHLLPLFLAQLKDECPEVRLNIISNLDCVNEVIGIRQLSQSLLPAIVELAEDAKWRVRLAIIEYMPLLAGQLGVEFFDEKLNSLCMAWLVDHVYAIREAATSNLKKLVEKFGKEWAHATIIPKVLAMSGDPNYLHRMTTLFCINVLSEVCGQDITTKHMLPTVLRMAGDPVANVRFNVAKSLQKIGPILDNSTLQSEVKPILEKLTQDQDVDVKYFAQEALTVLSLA
UniProt Q7TPW1: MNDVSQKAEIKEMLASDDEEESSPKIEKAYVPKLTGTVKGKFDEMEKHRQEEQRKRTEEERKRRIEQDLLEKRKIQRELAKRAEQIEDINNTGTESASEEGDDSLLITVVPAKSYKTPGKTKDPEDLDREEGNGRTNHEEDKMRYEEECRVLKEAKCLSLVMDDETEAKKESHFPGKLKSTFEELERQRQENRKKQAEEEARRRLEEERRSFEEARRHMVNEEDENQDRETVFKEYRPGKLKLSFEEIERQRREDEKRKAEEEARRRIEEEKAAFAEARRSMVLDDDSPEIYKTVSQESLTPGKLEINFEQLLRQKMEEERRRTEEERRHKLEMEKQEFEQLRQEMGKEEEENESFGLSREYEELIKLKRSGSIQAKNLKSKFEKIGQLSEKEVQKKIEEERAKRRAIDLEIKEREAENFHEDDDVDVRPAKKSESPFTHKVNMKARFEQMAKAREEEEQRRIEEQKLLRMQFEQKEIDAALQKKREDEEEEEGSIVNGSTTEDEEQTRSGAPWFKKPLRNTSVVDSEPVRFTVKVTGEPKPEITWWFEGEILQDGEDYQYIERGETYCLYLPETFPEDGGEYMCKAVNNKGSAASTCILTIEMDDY
UniProt Q6XBJ3: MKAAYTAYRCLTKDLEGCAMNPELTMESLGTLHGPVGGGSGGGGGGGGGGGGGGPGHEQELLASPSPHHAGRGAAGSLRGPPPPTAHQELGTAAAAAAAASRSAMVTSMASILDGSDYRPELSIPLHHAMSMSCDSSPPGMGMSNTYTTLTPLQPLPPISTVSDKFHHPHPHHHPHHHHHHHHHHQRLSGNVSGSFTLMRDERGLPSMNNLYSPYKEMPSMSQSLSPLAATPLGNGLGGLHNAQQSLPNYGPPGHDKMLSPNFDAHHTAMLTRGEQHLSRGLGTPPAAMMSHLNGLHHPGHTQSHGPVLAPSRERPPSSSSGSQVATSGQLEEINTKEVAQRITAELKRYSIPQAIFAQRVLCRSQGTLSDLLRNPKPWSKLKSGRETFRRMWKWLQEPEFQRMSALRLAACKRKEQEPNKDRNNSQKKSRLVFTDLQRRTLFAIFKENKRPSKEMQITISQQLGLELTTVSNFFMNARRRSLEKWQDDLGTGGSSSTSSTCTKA
UniProt Q6ZQF7, whole entry: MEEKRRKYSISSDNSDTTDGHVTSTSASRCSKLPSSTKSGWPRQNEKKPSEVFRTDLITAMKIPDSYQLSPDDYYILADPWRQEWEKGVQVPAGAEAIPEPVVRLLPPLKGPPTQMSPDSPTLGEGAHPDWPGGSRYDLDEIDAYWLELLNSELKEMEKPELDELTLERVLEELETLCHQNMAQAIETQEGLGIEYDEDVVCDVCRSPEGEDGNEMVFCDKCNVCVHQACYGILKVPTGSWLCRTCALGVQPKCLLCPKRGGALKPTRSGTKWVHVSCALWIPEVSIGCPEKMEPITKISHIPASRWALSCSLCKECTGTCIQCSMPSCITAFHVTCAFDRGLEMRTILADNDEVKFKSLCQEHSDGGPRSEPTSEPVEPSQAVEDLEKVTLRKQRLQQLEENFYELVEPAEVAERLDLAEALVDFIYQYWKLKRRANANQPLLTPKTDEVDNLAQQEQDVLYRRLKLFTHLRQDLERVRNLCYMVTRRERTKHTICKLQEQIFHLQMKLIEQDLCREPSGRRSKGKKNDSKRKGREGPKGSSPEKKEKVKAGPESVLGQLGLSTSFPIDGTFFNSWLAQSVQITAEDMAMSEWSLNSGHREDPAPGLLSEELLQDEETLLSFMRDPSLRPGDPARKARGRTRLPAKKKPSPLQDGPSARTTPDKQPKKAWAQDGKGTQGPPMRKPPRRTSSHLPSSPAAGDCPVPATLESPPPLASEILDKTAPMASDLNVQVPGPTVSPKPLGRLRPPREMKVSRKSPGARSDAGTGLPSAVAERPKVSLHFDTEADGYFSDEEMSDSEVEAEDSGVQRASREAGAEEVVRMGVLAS
UniProt Q80UP5: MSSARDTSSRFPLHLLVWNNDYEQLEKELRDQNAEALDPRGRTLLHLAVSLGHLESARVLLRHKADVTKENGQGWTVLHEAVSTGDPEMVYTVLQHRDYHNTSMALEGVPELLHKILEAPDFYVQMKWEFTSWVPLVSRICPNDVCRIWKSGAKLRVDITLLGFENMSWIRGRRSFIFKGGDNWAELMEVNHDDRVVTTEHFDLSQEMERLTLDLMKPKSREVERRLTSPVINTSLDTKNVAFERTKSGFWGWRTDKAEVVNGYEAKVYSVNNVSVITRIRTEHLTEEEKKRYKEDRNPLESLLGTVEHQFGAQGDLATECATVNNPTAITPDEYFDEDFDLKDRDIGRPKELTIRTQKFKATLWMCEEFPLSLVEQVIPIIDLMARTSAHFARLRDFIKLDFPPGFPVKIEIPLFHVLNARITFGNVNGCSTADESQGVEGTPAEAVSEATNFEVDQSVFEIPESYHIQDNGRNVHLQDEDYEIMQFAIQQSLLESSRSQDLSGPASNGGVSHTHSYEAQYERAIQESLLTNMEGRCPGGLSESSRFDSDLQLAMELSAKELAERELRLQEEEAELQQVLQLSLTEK
UniProt Q7TQ32: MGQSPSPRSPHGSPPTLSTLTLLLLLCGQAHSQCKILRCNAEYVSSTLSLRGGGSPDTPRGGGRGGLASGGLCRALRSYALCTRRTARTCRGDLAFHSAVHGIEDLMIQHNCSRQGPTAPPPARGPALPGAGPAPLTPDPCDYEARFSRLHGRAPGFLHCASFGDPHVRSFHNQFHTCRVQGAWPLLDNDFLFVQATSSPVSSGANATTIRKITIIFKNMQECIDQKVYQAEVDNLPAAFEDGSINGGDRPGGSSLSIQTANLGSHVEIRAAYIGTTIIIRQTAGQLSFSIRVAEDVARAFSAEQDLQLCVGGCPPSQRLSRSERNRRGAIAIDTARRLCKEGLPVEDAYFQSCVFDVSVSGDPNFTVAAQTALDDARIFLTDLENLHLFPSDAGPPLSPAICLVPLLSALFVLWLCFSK
UniProt Q7TQ95: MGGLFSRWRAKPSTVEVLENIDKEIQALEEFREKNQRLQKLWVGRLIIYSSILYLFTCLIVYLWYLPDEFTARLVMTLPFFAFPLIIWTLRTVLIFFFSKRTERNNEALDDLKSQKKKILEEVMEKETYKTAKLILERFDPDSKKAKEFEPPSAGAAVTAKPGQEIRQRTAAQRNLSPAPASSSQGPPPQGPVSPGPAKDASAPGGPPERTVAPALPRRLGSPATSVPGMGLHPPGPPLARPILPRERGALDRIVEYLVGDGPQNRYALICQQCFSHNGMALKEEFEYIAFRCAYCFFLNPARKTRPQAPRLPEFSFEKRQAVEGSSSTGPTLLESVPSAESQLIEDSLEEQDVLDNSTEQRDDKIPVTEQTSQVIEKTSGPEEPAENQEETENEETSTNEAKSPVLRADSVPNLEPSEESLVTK
UniProt Q7TMX5: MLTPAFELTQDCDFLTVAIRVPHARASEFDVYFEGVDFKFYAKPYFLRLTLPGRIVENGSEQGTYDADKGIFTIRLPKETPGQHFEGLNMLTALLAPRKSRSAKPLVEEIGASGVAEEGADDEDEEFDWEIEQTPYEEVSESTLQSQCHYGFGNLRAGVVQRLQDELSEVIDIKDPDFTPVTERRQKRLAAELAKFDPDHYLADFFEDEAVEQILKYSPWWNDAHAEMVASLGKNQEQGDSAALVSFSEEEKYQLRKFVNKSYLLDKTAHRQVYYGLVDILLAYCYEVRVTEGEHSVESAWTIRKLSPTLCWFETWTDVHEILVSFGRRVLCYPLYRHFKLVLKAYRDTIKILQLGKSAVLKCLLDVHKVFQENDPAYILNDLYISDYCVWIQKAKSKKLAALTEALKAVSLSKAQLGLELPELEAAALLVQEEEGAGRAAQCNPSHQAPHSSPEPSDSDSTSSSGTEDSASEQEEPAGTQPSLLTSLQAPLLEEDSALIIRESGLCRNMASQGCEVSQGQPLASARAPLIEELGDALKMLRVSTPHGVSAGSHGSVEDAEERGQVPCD
UniProt Q7TMK6: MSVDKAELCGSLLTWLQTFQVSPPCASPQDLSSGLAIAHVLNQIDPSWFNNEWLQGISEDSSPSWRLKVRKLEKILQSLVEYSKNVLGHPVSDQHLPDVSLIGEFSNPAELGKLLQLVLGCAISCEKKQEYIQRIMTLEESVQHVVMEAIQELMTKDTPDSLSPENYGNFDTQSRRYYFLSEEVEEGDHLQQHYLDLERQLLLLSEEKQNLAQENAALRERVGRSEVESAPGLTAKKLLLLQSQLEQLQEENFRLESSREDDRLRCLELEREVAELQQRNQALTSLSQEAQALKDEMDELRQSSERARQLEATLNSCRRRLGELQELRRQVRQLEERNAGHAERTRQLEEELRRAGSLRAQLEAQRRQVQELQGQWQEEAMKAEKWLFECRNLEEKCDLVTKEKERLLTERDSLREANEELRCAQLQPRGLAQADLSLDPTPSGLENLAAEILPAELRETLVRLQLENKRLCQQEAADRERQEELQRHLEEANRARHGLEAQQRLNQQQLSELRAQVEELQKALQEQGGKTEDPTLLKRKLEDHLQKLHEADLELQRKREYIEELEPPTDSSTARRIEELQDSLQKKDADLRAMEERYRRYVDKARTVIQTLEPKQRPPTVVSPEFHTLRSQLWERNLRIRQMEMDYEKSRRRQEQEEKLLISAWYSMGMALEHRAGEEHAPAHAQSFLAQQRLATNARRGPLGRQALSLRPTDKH

Target | log2 fold change
UniProt Q6ZQ82 (peptide sequence: KEQIGAAREAK, peptide start residue: 121) | -0.133
UniProt Q78RX3 (peptide sequence: KLDEMLGK, peptide start residue: 57) | 0.0827
UniProt Q7TSI0 (peptide sequence: THTGEKPYECNECGK, peptide start residue: 424) | 0.596
UniProt Q80U44 (peptide sequence: SDVLDGETDLSKKETCR, peptide start residue: 413) | -0.452
UniProt Q80UZ0 (peptide sequence: SRPPFLPLPLTKPR, peptide start residue: 505) | 0.153
UniProt Q76MZ3 (peptide sequence: KLSTIALALGVER, peptide start residue: 34) | -0.173
UniProt Q80UY2 (peptide sequence: QSMESERADR, peptide start residue: 307) | -0.493
UniProt Q80U49 (peptide sequence: DRPGVSVR, peptide start residue: 444) | -0.271
UniProt Q7TPW1 (peptide sequence: TKDPEDLDREEGNGR, peptide start residue: 121) | -0.114
UniProt Q80V94 (peptide sequence: SSSSVLSDYLSCHCQK, peptide start residue: 1102) | 0.523
UniProt Q6ZPY7 (peptide sequence: ATASWPESHSSAESAPLAK, peptide start residue: 671) | -0.249
UniProt Q80U35 (peptide sequence: ATPDEPAPASK, peptide start residue: 1040) | -0.39
UniProt Q6XBJ3 (peptide sequence: MLSPNFDAHHTAMLTR, peptide start residue: 258) | 0.642
UniProt Q80TH2 (peptide sequence: LKDEETNEESGR, peptide start residue: 505) | -0.287
UniProt Q6ZQA0 (peptide sequence: FEMDTYAK, peptide start residue: 1713) | 0.262
UniProt Q7TSS2 (peptide sequence: GNTLLLQHLK, peptide start residue: 141) | 0.308
UniProt Q80V23 (peptide sequence: GNCLLHGK, peptide start residue: 229) | -0.83
UniProt Q715T0 (peptide sequence: NIEVREK, peptide start residue: 170) | -0.452
UniProt Q76I79 (peptide sequence: LDHTSNFSK, peptide start residue: 897) | 0.413
UniProt Q78PY7 (peptide sequence: EVCFTIENKTPQGR, peptide start residue: 94) | -0.233

As a working copy, part of the list above:
Target | log2 fold change
UniProt Q6ZPY7 (peptide sequence: ATASWPESHSSAESAPLAK, peptide start residue: 671) | -0.249
UniProt Q80U35 (peptide sequence: ATPDEPAPASK, peptide start residue: 1040) | -0.39
UniProt Q6XBJ3 (peptide sequence: MLSPNFDAHHTAMLTR, peptide start residue: 258) | 0.642

Remaining list, next part.

Target | log2 fold change
UniProt Q7TN73 (peptide sequence: NKPCTDLESGEEKK, peptide start residue: 341) | 0.178
UniProt Q7TMW6 (peptide sequence: LLHTQYHAVEKPSSGLSIR, peptide start residue: 457) | -0.501
UniProt Q6ZQF7 (peptide sequence: KKPSPLQDGPSAR, peptide start residue: 648) | -0.238
UniProt Q80UV9 (peptide sequence: TVIHNDNEELIKVEGTK, peptide start residue: 1327) | 0.444
UniProt Q7TSH4 (peptide sequence: HCGSAIPDKPSLNK, peptide start residue: 284) | 0.375
UniProt Q6ZPI0 (peptide sequence: FHCDLVK, peptide start residue: 665) | 0.329
UniProt Q78JE5 (peptide sequence: TVEAAMQR, peptide start residue: 300) | 0.416
UniProt Q80UP5 (peptide sequence: VYSVNNVSVITR, peptide start residue: 268) | -0.114
UniProt Q7TQ32 (peptide sequence: GGLASGGLCR, peptide start residue: 65) | 0.0389
UniProt Q7TQ95 (peptide sequence: NNEALDDLK, peptide start residue: 105) | 0.42
UniProt Q7TMY4 (peptide sequence: VIQHHPDRHETLK, peptide start residue: 125) | 0.36
UniProt Q80TM6 (peptide sequence: DDASMDRDDNQMR, peptide start residue: 260) | 0.464
UniProt Q7TMX5 (peptide sequence: LAALTEALK, peptide start residue: 400) | 0.117
UniProt Q80U63 (peptide sequence: QITEEVER, peptide start residue: 421) | 0.209
UniProt Q78KK3 (peptide sequence: EASVQSAPQGGTK, peptide start residue: 192) | 0.256
UniProt Q80TE0 (peptide sequence: PKPGESEVDLLR, peptide start residue: 6) | -0.353
UniProt Q7TMK6 (peptide sequence: EANEELR, peptide start residue: 416) | -0.37
UniProt Q6ZPE2 (peptide sequence: NTLSSFSSAHMGGHGK, peptide start residue: 1262) | -0.338
UniProt Q71RI9 (peptide sequence: AIILNTPHNPLGK, peptide start residue: 211) | -0.434
UniProt Q7TPM9 (peptide sequence: MFSLKPPRPSFR, peptide start residue: 1) | 0.265
